The text below walks through data of patent US20120264815.

Chains of the proteins cited; added tags and fusions are not shown. Chains listed by the source or under a name are the forms on record and can include a tag or linker. Residues count along the entry.
UniProt Q8CIZ8, 764-2813: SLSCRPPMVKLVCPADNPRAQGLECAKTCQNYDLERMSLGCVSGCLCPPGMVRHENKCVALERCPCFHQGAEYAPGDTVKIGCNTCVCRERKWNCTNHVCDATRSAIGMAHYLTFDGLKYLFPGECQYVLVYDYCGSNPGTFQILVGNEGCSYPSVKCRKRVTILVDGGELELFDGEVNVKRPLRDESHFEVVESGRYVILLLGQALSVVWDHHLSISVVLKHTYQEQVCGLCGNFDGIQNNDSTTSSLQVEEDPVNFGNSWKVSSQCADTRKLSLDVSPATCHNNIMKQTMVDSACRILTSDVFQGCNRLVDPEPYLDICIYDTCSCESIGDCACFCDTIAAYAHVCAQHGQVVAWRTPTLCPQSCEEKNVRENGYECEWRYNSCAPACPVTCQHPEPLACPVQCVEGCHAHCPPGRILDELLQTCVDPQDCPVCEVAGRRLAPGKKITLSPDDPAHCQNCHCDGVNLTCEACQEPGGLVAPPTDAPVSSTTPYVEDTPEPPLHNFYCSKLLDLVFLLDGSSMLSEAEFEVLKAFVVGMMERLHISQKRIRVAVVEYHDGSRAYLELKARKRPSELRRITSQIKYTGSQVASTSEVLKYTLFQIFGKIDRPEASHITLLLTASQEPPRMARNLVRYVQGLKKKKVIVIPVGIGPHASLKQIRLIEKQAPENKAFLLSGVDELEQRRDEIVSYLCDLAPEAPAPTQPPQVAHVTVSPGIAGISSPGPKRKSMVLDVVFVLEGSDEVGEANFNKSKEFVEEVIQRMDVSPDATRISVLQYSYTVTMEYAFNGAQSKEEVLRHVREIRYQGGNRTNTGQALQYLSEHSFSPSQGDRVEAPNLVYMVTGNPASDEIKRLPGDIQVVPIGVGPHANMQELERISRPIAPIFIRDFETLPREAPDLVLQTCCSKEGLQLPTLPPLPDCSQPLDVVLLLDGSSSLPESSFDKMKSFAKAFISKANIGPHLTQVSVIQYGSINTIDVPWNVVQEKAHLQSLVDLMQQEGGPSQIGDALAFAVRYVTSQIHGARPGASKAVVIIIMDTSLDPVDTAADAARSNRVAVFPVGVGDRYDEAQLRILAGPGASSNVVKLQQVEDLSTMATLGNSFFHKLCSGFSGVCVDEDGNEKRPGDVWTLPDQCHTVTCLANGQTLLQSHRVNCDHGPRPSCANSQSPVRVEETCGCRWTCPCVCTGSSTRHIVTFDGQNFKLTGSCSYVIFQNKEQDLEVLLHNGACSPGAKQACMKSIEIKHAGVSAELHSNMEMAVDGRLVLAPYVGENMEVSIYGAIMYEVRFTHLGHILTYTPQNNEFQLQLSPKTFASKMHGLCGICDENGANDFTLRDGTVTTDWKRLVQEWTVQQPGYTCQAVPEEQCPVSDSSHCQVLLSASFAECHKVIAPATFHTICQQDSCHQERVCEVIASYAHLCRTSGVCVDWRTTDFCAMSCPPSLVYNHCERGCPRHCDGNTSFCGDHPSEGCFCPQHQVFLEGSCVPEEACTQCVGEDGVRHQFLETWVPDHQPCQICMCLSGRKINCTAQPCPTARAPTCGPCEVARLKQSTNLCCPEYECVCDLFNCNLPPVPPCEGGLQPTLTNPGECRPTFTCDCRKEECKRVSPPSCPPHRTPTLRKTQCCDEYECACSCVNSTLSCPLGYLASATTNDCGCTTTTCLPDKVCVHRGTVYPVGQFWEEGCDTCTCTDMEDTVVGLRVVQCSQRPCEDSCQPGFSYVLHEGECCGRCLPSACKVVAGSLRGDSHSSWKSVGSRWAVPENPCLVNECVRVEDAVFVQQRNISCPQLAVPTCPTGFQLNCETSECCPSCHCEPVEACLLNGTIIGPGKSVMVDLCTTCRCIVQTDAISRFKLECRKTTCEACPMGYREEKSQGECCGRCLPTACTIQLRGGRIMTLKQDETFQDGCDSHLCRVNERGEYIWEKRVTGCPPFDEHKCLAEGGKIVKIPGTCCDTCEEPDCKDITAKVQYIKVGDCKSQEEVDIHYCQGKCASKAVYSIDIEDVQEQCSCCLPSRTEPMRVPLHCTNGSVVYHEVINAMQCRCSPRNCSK
glycoprotein IIb/IIIa on activated platelets (Homo sapiens), one chain, as listed by the source, chain 3 of 3: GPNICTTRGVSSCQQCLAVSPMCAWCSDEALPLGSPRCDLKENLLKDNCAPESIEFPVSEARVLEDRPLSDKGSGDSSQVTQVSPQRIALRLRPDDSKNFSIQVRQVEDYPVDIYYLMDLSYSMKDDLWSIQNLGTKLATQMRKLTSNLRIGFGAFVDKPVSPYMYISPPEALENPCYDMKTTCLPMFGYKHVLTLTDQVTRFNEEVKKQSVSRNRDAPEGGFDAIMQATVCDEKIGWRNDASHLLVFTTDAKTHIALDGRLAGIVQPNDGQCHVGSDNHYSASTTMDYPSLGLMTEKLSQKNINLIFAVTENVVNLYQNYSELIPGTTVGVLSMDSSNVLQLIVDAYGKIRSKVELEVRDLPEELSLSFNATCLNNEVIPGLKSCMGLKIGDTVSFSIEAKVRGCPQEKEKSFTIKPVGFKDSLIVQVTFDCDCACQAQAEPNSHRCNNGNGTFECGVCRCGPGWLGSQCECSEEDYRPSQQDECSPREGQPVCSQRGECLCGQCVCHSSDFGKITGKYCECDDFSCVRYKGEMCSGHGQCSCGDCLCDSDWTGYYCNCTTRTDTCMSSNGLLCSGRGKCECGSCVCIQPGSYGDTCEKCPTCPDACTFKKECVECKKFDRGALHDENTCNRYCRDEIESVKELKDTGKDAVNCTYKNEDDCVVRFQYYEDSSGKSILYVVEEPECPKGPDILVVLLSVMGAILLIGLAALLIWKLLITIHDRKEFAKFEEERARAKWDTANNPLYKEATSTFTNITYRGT
glycoprotein IIb/IIIa on activated platelets (Homo sapiens), one chain, as listed by the source, chain 2 of 3: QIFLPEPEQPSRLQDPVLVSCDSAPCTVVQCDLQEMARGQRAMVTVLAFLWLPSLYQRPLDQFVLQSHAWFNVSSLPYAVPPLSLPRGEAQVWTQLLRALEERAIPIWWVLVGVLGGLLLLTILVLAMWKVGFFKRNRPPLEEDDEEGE

pKd: −log10 of the molar value. For some assays here: At least one result comes from cells or an extract, where the contact may be indirect. For some assays here: Construct, isoform or probe ends are uncertain for at least one entry. For some assays here: A negative result means that nothing was seen under these conditions.

In data set [1] the test system is glycoprotein IIb/IIIa on activated platelets (Homo sapiens). In words: filter binding. As to conditions: 2'-F pyrimidines; protein on the cell surface; label: 5'-32P.
For data set [2], the target named is von Willebrand factor (VWF) (Homo sapiens) (UniProt P04275). The data set can be described thus: FP. As to conditions: 2'-F pyrimidines; purified native protein; protein details: Haematologic Technologies Inc. (factor VIII free); label: 5'-32P.
For data set [3] the target is unchanged. In words: activity in cells. As to conditions: 2'-F pyrimidines, purified native protein, protein details: Haematologic Technologies Inc. (factor VIII free).
In data set [4] the target is VWF SPIII fragment (V8 protease) (UniProt P04275). The data set can be described thus: filter binding. As to conditions: 2'-F pyrimidines; 37 C, 2 mM CaCl2; purified native protein; label: 5'-32P.
The target in data set [5] is VWF SPI fragment (V8 protease + C-terminal 455 residues of SPIII) (UniProt P04275). The data set can be described thus: filter binding. As to conditions: 2'-F pyrimidines, purified native protein, label: 5'-32P.
In data set [6] the target is von Willebrand factor (VWF) (Homo sapiens) (UniProt P04275). The data set can be described thus: filter binding. As to conditions: 2'-F pyrimidines; nitrocellulose filter binding, 37 C, 2 mM CaCl2; purified native protein; protein details: Haematologic Technologies Inc. (factor VIII free); label: 5'-32P.
The target in data set [7] is von Willebrand factor (in vivo, mouse) (Mus musculus) (UniProt Q8CIZ8). The data set can be described thus: activity in cells. As to conditions: 2'-F pyrimidines; 5'-cholesterol; mouse FeCl3 carotid model, 3 mg/kg, patency kept 60 min; increased tail bleeding; protein in cells; variant of 9.14 T10.

With “GGGAGGACGAUGCGGACAGAUCUACCCGAGACAAACAUCCCACCCUCCGACAGACGACUCGCUGAGGAUCC [C6]”, the binding result in data set [1] is listed as “binds”. As to “GGGAGGACGAUGCGGACCUGCUAGCAGUGGCGCGAAUAAACCAUCGCAGCAUCAACAGACGACUCGCUGAGGAUCC [C4]”, the binding result in data set [1] was “binds”. For orientation: pKd means the Kd on a negative log10 scale, so that one unit is a factor of ten. A higher pKd goes with a low Kd. For the sequence “GGGAGGACGAUGCGGAUCGCGCUCUCCUGCUUAAGCAGCUAUCAAAUAGCCCACUCAGACGACUCGCUGAGGAUCC [VWF R9.3]”, the pKd in data set [2] was 8.92. In data set [3] (PFA-100 complete inhibition above 40 nM, RIPA blocked at 250 nM, no effect on collagen, ADP, thrombin aggregation), the functional effect of the aptamer (s closing time) is over 300. Moreover, the binding result is on record as “binds” in data set [4] and “no binding” in data set [5] (37 C, 2 mM CaCl2).

Consider “GGGAGGACGAUGCGGUAUAACCGUUCUAGCGCUAAUGACACUAUAGCAUCCCCGUCAGACGACUCGCUGAGGAUCC [C2]”, for which, in data set [1], the binding result is reported as “binds”. As to “GGGAGGACGAUGCGGUAUAGACCACAGCCUGAGAUUAACCACCAACCCAGGACUCAGACGACUCGCUGAGGAUCC [VWF R9.4]”, the binding result in data set [4] and in data set [5] (maps near A3 domain) was “binds” each time. In data set [6], this sequence showed a pKd of 8.72.

As to “GGGAGGACGAUGCGGUCCCUUGGAUGAGACUAACAACCUACCACAUCCUAUACUCCAGACGACUCGCUGAGGAUCC [C9]”, the binding result in data set [1] is given as “binds”. The same measure, in the same setting: in the case of “GGGAGGACGAUGCGGUCCUAAGAUUAAAUACGCCACGGCUCACUUACACACCAGCAGACGACUCGCUGAGGAUCC [C7]” it was “binds”; in that of “GGGAGGACGAUGCGGUGCCACAUGCCUCAGAUACAGCACGCACCUUCGACCUAAUCAGACGACUCGCUGAGGAUCC [C8]”, “binds”. “GGGAGGACGAUGCGGUGCUCCUUGGCCUUAGCCCUGGAACCAUCAAUCCUCUUCGCAGACGACUCGCUGAGGAUCC [VWF R9.18]” showed a pKd in data set [6] of 6.56. In the case of “GGGAGGUGGACGAACUGCCCUCAGCUACUUUCAUGUUGCUGACGCACAGACGACUCGCUG [9.14 T10]”, the “functional effect of the aptamer” value in data set [3] (PFA-100 inhibition at 50 nM, variant of VWF …) is on record as “active”. “GGGAGGUGGACGAACUGCCCUCAGCUACUUUCAUGUUGCUGACGCACAGACGACUCGCUG [Ch-9.14-T10]”: the “functional effect of the aptamer” value in data set [7] is “active”; in data set [3] (5'-cholesterol, PFA-100 complete inhibition at 50 nM, reversed by AO1 and CDP, variant of 9.14 T10), “active”.
